# Experimental data as given in the supplement of paper PMC6411743.
# ± gives the standard deviation of the averaged measurements. The entries are a selection whose mix differs from that of the whole data set.
# What was measured:
# Assay in all cases: NP40-soluble protein abundance relative to vehicle (solubility fold change) (ratio); higher = more soluble protein in presence of AMP-PNP
# ARHGAP1 = target: T1, ARHGAP1 (UniProt Q07960)
# T1 sequence (whole entry): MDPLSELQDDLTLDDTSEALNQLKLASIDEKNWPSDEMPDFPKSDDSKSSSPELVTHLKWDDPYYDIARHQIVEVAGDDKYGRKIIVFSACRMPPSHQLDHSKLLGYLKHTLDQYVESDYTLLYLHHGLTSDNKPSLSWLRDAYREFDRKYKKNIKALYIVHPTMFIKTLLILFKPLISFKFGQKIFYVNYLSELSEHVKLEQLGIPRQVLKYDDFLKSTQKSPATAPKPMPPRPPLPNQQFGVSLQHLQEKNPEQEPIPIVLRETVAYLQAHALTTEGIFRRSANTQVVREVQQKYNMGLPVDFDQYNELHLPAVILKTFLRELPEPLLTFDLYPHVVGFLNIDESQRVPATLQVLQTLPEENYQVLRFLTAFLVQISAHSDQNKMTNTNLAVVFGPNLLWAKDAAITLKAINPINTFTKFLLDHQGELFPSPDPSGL
# How it was run: (§1)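 Jurkat crude lysate (Dounce-homogenised) was treated with eight concentrations from 0.1 to 10 mM for 10 min at room temperature, then 3 min at 37 °C. It was solubilised with 0.8% NP40 and benzonase (60 min, 4 °C) and ultracentrifuged, and the supernatant was TMT-labelled for LC-MS/MS. Intensities were vsn-normalised, and the value is the fold change against the NP40-processed vehicle per replicate, from three independent experiments.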
# DR1 = target: T2, DR1 (UniProt Q01658)
# T2 sequence (whole entry): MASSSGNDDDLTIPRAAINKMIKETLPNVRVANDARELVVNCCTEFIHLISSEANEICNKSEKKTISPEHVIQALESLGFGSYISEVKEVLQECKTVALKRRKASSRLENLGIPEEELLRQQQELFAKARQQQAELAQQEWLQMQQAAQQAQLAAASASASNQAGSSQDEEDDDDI
# How it was run: as §1
# EIF4G2 = target: T3, EIF4G2 (UniProt P78344)
# T3 sequence (whole entry): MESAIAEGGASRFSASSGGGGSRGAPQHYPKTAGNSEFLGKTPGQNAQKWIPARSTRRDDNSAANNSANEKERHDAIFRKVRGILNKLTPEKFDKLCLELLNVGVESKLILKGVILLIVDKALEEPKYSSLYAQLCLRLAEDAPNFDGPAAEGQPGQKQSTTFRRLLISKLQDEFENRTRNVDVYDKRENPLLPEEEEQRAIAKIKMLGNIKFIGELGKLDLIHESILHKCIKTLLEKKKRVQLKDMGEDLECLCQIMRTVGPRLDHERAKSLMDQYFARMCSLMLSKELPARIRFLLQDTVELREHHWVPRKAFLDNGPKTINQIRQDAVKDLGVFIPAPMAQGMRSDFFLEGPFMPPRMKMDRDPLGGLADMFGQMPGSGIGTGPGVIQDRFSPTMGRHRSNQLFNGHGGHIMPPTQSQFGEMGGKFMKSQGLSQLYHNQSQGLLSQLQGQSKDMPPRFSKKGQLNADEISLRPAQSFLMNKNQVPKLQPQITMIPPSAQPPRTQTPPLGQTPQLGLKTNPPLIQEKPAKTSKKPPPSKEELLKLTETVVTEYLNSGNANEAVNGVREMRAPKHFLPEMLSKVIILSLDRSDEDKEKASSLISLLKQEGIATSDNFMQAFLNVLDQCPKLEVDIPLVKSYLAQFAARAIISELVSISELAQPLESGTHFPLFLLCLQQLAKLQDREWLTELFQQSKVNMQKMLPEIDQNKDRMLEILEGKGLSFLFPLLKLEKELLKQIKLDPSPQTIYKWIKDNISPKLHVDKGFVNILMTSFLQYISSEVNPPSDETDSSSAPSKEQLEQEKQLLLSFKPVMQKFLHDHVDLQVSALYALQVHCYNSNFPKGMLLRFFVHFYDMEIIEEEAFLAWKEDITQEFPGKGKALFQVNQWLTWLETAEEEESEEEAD
# How it was run: as §1
# PURA = target: T4, PURA (UniProt Q00577)
# T4 sequence (whole entry): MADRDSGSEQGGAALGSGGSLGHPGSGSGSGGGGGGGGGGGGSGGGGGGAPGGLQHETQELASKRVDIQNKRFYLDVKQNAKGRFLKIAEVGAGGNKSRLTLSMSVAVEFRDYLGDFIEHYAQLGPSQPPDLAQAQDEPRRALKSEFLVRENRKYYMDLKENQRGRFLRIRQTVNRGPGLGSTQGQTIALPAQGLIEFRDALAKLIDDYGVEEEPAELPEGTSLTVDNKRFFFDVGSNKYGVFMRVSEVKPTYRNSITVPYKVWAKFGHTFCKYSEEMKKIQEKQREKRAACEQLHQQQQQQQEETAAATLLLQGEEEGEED
# How it was run: as §1
# [1] = target: T5, UniProt Q01804 and related entries
# T5 sequence (whole entry): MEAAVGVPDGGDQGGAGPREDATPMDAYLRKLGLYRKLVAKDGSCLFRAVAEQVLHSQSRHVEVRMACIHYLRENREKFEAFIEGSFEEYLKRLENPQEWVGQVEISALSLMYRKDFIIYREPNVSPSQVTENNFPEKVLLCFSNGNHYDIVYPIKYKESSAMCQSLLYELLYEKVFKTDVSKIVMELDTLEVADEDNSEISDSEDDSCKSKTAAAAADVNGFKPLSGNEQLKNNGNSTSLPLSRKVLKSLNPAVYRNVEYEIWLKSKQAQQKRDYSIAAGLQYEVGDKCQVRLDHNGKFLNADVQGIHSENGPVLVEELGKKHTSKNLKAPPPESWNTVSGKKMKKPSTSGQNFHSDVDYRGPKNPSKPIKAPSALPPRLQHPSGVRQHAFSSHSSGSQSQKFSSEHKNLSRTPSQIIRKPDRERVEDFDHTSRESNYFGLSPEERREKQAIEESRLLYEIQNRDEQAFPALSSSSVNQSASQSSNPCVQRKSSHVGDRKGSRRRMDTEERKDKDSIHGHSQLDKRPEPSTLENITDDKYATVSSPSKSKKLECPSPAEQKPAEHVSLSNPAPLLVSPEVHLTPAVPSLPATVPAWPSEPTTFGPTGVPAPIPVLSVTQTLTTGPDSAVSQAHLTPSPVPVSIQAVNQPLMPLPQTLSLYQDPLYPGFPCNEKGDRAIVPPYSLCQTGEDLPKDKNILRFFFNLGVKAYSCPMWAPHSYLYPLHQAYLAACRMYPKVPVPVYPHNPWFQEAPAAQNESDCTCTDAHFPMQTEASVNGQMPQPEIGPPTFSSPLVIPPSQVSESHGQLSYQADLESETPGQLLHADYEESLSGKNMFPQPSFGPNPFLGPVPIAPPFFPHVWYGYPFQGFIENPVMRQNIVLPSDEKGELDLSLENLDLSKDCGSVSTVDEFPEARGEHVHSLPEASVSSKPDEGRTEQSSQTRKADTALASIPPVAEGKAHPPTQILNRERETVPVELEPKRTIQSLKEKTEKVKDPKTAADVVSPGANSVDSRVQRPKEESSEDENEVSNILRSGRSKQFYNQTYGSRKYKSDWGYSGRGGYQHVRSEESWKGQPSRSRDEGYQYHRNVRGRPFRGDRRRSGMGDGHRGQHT
# How it was run: as §1
# UniProt Q02040 = target: T6, UniProt Q02040
# T6 sequence (whole entry): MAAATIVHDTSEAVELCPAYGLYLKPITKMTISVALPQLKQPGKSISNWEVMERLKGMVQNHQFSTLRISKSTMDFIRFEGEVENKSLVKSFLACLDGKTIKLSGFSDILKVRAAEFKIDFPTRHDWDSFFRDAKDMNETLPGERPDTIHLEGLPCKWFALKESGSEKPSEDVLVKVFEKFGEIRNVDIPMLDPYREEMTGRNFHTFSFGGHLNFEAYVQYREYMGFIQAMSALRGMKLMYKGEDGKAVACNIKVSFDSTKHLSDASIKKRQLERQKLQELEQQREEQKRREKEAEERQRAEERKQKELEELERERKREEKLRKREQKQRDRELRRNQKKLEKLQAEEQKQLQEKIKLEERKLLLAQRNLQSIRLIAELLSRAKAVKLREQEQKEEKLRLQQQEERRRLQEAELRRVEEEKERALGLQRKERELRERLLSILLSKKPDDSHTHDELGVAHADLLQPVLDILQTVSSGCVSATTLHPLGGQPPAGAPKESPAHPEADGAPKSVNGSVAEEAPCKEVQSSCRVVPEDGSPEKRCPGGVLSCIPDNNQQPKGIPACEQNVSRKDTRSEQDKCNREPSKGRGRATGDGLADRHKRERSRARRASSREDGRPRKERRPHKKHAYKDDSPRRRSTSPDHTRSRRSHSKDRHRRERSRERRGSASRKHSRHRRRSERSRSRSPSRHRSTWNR
# How it was run: as §1
smiles,measurement,setting,value
Nc1ncnc2c1ncn2[C@@H]1O[C@H](COP(=O)(O)OP(=O)(O)NP(=O)(O)O)[C@@H](O)[C@H]1O [adenylyl imidodiphosphate],NP40-soluble protein abundance,ARHGAP1; concentration: 1mM,0.969 ± 0.027
same,NP40-soluble protein abundance,ARHGAP1; concentration: 2mM,0.973 ± 0.021
same,NP40-soluble protein abundance,ARHGAP1; concentration: 4mM,0.939 ± 0.043
same,NP40-soluble protein abundance,ARHGAP1; concentration: 6mM,0.919 ± 0.013
same,NP40-soluble protein abundance,ARHGAP1; concentration: 8mM,0.885 ± 0.04
same,NP40-soluble protein abundance,ARHGAP1; concentration: 10mM,0.917 ± 0.034
same,NP40-soluble protein abundance,DR1; concentration: 1mM,0.95 ± 0.042
same,NP40-soluble protein abundance,DR1; concentration: 2mM,0.965 ± 0.052
same,NP40-soluble protein abundance,DR1; concentration: 4mM,0.904 ± 0.059
same,NP40-soluble protein abundance,DR1; concentration: 6mM,0.846 ± 0.014
same,NP40-soluble protein abundance,DR1; concentration: 8mM,0.815 ± 0.042
same,NP40-soluble protein abundance,DR1; concentration: 10mM,0.827 ± 0.091
same,NP40-soluble protein abundance,EIF4G2; concentration: 1mM,1.03 ± 0.015
same,NP40-soluble protein abundance,EIF4G2; concentration: 2mM,1.07 ± 0.043
same,NP40-soluble protein abundance,EIF4G2; concentration: 4mM,1.06 ± 0.0056
same,NP40-soluble protein abundance,EIF4G2; concentration: 6mM,1.12 ± 0.03
same,NP40-soluble protein abundance,EIF4G2; concentration: 8mM,1.11 ± 0.04
same,NP40-soluble protein abundance,EIF4G2; concentration: 10mM,1.14 ± 0.074
same,NP40-soluble protein abundance,PURA; concentration: 1mM,0.98 ± 0.051
same,NP40-soluble protein abundance,PURA; concentration: 2mM,0.976 ± 0.1
same,NP40-soluble protein abundance,PURA; concentration: 4mM,0.979 ± 0.062
same,NP40-soluble protein abundance,PURA; concentration: 6mM,1.08 ± 0.14
same,NP40-soluble protein abundance,PURA; concentration: 8mM,1.05 ± 0.098
same,NP40-soluble protein abundance,PURA; concentration: 10mM,1.11 ± 0.044
same,NP40-soluble protein abundance,[1]; concentration: 1mM,1.01 ± 0.016
same,NP40-soluble protein abundance,[1]; concentration: 2mM,1.05 ± 0.045
same,NP40-soluble protein abundance,[1]; concentration: 4mM,1.063 ± 0.0053
same,NP40-soluble protein abundance,[1]; concentration: 6mM,1.01 ± 0.03
same,NP40-soluble protein abundance,[1]; concentration: 8mM,0.995 ± 0.032
same,NP40-soluble protein abundance,[1]; concentration: 10mM,1.03 ± 0.049
same,NP40-soluble protein abundance,UniProt Q02040; concentration: 1mM,1.04 ± 0.03
same,NP40-soluble protein abundance,UniProt Q02040; concentration: 2mM,1.03 ± 0.034
same,NP40-soluble protein abundance,UniProt Q02040; concentration: 4mM,1.04 ± 0.056
same,NP40-soluble protein abundance,UniProt Q02040; concentration: 6mM,1.1 ± 0.035
same,NP40-soluble protein abundance,UniProt Q02040; concentration: 8mM,1.1 ± 0.035
same,NP40-soluble protein abundance,UniProt Q02040; concentration: 10mM,1.09 ± 0.031

# Pulled one by one from the list above:
smiles,measurement,setting,value
Nc1ncnc2c1ncn2[C@@H]1O[C@H](COP(=O)(O)OP(=O)(O)NP(=O)(O)O)[C@@H](O)[C@H]1O [adenylyl imidodiphosphate],NP40-soluble protein abundance,EIF4G2; concentration: 2mM,1.07 ± 0.043
same,NP40-soluble protein abundance,DR1; concentration: 1mM,0.95 ± 0.042
